# The whole screen tested about 300,000 compounds, of which about 5,400 (1.8%) were called active. Inconclusive means that the source gave no clear call. Such entries were picked first, then a sample of the others. Calls follow the shape of the full dose curve; tested in HEK293 cells. Potencies of inconclusive entries are doubtful fits and often do not repeat.
# Assay: qHTS for inhibitors of binding or entry into cells for Marburg Virus
# Settings: Marburg virus pseudotyped entry inhibition, cell reporter; series mostly up to 37.8 µM
# Potency is read from the fitted curve at half-maximal effect.
row,SMILES,Potency
1,O=[N+]([O-])c1cccc(-c2nnc(C34CC5CC(CC(C5)C3)C4)o2)c1,"inconclusive: 1.26 µM [inhibitor, single point]"
2,CCC(=O)c1ccc(OCC(O)CN2CCN(c3ccccn3)CC2)cc1 (stereo unspecified),"inconclusive: 28.2 µM [activator, single point]"
3,Cn1c(SCc2ccc(F)cc2)nc2ccc(C(=O)NCc3ccc(Cl)cc3)cc21,"inconclusive: 7.08 µM [inhibitor, partial curve, poor fit]"
4,Cc1ccc(C(=O)NNC(=O)c2csc(N3CCOCC3)n2)s1,inactive
5,COc1cc(/C=C/C(=O)c2ccc(NS(=O)(=O)c3ccc(C)cc3)cc2)ccc1OC(F)F,"inconclusive: 25.1 µM [inhibitor, single point]"
6,CCOC(=O)c1ccc(N2C(=O)c3n[nH]c(C)c3C2c2ccco2)cc1 (stereo unspecified),"inconclusive: 22.4 µM [inhibitor, single point]"
7,CC(C)c1[nH]c(=O)c(C#N)c2c1COC(C)(C)C2,inactive
8,CCCn1c(SCc2nc(-c3ccc(OC)cc3OC)no2)nnc1-c1ccc(Cl)cc1,inactive
9,c1csc(C(c2nnnn2C2CCCCC2)N2CCCC3(CCCCC3)C2)c1 (stereo unspecified),"inconclusive: 1.64 µM [inhibitor, partial curve, poor fit]"
10,Cc1nn(Cc2ccc(Cl)cc2)c(C)c1NC(=O)C(c1ccccc1)c1ccccc1,"inconclusive: 1.12 µM [inhibitor, partial curve, poor fit]"
11,CCCCOC(=O)Nc1ccc(S(=O)(=O)Nc2nc(C)cc(C)n2)cc1,inactive
12,N#Cc1nc(-c2ccccc2Cl)oc1N1CCCCC1,inactive
13,CCOc1ccccc1N1CCN(Cc2cn[nH]c2-c2ccc(F)cc2)CC1,"inconclusive: 20 µM [inhibitor, single point]"
14,Cc1nnc(-c2ccccc2)c(=O)n1/N=C/c1c(O)ccc2ccccc12,"inconclusive: 35.5 µM [inhibitor, single point]"
15,CCOc1ccc(S(=O)(=O)N2CCN(Cc3ccccc3)CC2)cc1,"inconclusive: 10 µM [inhibitor, partial curve, poor fit]"
16,O=C(NCc1ccccc1)NC1(C(=O)N2CCN(c3ccccc3)CC2)CCCCC1,"inconclusive: 6.31 µM [inhibitor, single point]"
17,CCCC(c1nnnn1C(C)(C)C)N1CCN(Cc2ccccc2OC)CC1 (stereo unspecified),"inconclusive: 7.08 µM [inhibitor, partial curve, poor fit]"
18,C=CCSc1nnc(CCCCCN2C(=O)c3cccc4cccc(c34)C2=O)o1,"inconclusive: 35.5 µM [inhibitor, single point]"
19,COc1ccc2nc(C)c(C(N)=O)cc2c1,"inconclusive: 0.112 µM [inhibitor, partial curve, poor fit]"
20,O=C(c1ccccc1CCc1ccccc1)N1CCOCC1,inactive
21,CCC(C)NC(=O)c1ccccc1NC(=O)c1ccc(CSc2ccc(C)cc2)cc1 (stereo unspecified),"inconclusive: 13 µM [inhibitor, partial curve, poor fit]"
22,Cc1cc(C(=O)CN2C(=O)NC3(CCCc4sccc43)C2=O)c(C)n1-c1ccc(Cl)cc1 (stereo unspecified),"inconclusive: 14.1 µM [inhibitor, single point]"

row,SMILES,Potency
1,OC(CNCc1ccco1)Cn1c2ccc(Br)cc2c2cc(Br)ccc21 (stereo unspecified),"inconclusive: 9.2 µM [inhibitor, partial curve, poor fit]"
2,COc1ccc(CCNC(=O)CCCn2c(=O)c3ccccc3n(Cc3cccc(Cl)c3)c2=O)cc1OC,"inconclusive: 2.24 µM [inhibitor, partial curve, poor fit]"
3,CCOc1ccc(N(C(=O)CC(C)C)S(=O)(=O)c2ccc3c(c2)oc(=O)n3C)cc1,"inconclusive: 8.91 µM [inhibitor, partial curve, poor fit]"
4,Cc1ccc(C)c(S(=O)(=O)N2CCN(Cc3ccc(O)c4ncccc34)CC2)c1,active: 7.3 µM
5,CN(/N=C/c1cccnc1)c1cnn(-c2ccc(F)c(Cl)c2)c(=O)c1Cl,"inconclusive: 0.231 µM [inhibitor, full curve, poor fit]"
6,COc1ccc(-n2cccc2/C=C2/NC(=O)N(c3cccc(Cl)c3)C2=O)cc1,inactive
7,O=S(=O)(Nc1ccc2nc(-c3ccc(F)cc3)oc2c1)c1ccccc1,inactive
8,O=C(CCn1c(=O)[nH]c2ccsc2c1=O)N1CCN(c2cccc(Cl)c2)CC1,"inconclusive: 0.517 µM [inhibitor, full curve, poor fit]"
9,CN1CCc2c(sc3c2c(=O)n(-c2ccccc2)c2nnc(SCc4ccc(Cl)cc4)n32)C1,"inconclusive: 14.1 µM [inhibitor, single point]"
10,CC(C(=O)Nc1nc(-c2ccc(F)cc2)cs1)N1C(=O)C2CC=CCC2C1=O (stereo unspecified),inactive
11,CCN(CC)CCN1C(=O)C(=O)/C(=C(/O)c2cnn(-c3ccccc3)c2C)C1c1ccc(C)o1 (stereo unspecified),inactive
12,Cc1ccc(C(=O)NCCc2cccc(Cl)c2)cc1[N+](=O)[O-],inactive
13,Cc1nn(Cc2ccc(C(=O)NC(C)(C)C)o2)c(C)c1Br,"inconclusive: 10 µM [inhibitor, partial curve, poor fit]"
14,Cc1ccc(-n2ncc3c2CCCC3NC(=O)CCCN2CCCCC2=O)cc1C (stereo unspecified),"inconclusive: 17.8 µM [inhibitor, single point]"
15,Cc1ccc(S(=O)(=O)NCC(=O)N/N=C/c2ccccc2O)cc1,"inconclusive: 14.1 µM [inhibitor, partial curve, poor fit]"
16,O=C(c1ccc2nc(N3CCCCC3)sc2c1)N1CCN(c2ccccn2)CC1,inactive
17,O=c1c2cccnc2n(Cc2ccccc2F)c(=O)n1Cc1ccc(F)cc1,inactive
18,Cc1ccc2c(COC(=O)c3ccccc3OC(F)F)cc(=O)oc2c1,inactive
19,CN1CCc2c(OCc3ccc(F)cc3)cccc2C1=O,inactive
20,CCNCc1cc(Cl)c(OCc2ccccc2)c(OCC)c1,"inconclusive: 10 µM [inhibitor, partial curve, poor fit]"
21,CCN(CC)P(=O)(C(NC(=O)OC)C(F)(F)C(F)(F)C(F)(F)C(F)F)N(CC)CC (stereo unspecified),"inconclusive: 29.1 µM [inhibitor, single point]"
22,COc1cccc(CNC(=O)C(NS(=O)(=O)c2cccs2)C(C)C)c1 (stereo unspecified),inactive

# In a second layout: 4 of the compounds above
row | SMILES | Potency
5 | COc1cc(/C=C/C(=O)c2ccc(NS(=O)(=O)c3ccc(C)cc3)cc2)ccc1OC(F)F | inconclusive: 25.1 µM [inhibitor, single point]
13 | CCOc1ccccc1N1CCN(Cc2cn[nH]c2-c2ccc(F)cc2)CC1 | inconclusive: 20 µM [inhibitor, single point]
8 | O=C(CCn1c(=O)[nH]c2ccsc2c1=O)N1CCN(c2cccc(Cl)c2)CC1 | inconclusive: 0.517 µM [inhibitor, full curve, poor fit]
9 | CN1CCc2c(sc3c2c(=O)n(-c2ccccc2)c2nnc(SCc4ccc(Cl)cc4)n32)C1 | inconclusive: 14.1 µM [inhibitor, single point]

# Further structures.

row,SMILES,Potency
1,COc1cc(C2Sc3ccccc3NC3=C2C(=O)OC3)cc(OC)c1OC (stereo unspecified),"inconclusive: 11.6 µM [inhibitor, partial curve, poor fit]"
2,C/C(=N\NC(=O)c1ccccc1)c1c(C)[nH]n(-c2ccccc2)c1=O,"inconclusive: 11.2 µM [inhibitor, single point]"
3,CCc1ccc(N2C(=O)C3C(C2=O)N2CCCN2C3c2ccccc2)cc1 (stereo unspecified),"inconclusive: 1.26 µM [inhibitor, single point]"
4,CC(NC(=O)COC(=O)Cc1ccc(-c2ccccc2)cc1)c1ccccc1 (stereo unspecified),"inconclusive: 0.224 µM [activator, full curve, poor fit]"
5,Clc1ccc(-c2cn3ncsc3n2)cc1,"inconclusive: 3.98 µM [activator, partial curve, poor fit]"
6,COc1cccc2cc(C(=O)n3ccc(C)n3)c(=O)oc12,"inconclusive: 35.5 µM [activator, single point]"
7,Cc1ccc(Br)cc1S(=O)(=O)N1CCN(c2ccccc2)CC1,"inconclusive: 12.6 µM [inhibitor, partial curve, poor fit]"
8,Fc1ccc(-n2[nH]nnc2=S)cc1N1CCCC1,inactive
9,COc1ccc(CNC(=O)C/C(C)=N/NC(=O)COc2ccc(C)cc2Br)cc1,"inconclusive: 35.5 µM [inhibitor, single point]"
10,COc1ccc([C@H]2C[C@@H](n3cc(-c4ccc(F)cc4)nn3)[C@H](O)CN2Cc2cccs2)cc1,"inconclusive: 31.5 µM [inhibitor, single point]"
11,COc1ccc(N(CC(=O)N2CCN(C)CC2)S(=O)(=O)c2cc(C)ccc2OC)cc1Cl,inactive
12,Cc1cc(C)n2ncc(-c3cccc(Br)c3)c2n1,"inconclusive: 2.82 µM [activator, full curve, poor fit]"
13,CC1CCC(NC(=O)c2ccc3c(c2)N(Cc2ccccc2F)C(=O)c2ccccc2S3=O)CC1 (stereo unspecified),inactive
14,COc1ccc(C(C)=O)cc1COC(=O)c1c(C)noc1C,"inconclusive: 16.4 µM [inhibitor, partial curve, poor fit]"
15,CCN1C/C(=N\S(=O)(=O)/N=C2\CN(CC)C(=O)N2CC)N(CC)C1=O,"inconclusive: 31.6 µM [activator, partial curve, poor fit]"
16,CCCCc1nc2c(c3c1C[C@H](C)OC3)CN(C(=O)NCc1ccco1)CC2,"inconclusive: 1.19 µM [inhibitor, single point]"
17,CN(C(=O)c1ccc(-c2ccccc2)cc1)C1CCCCC1,"inconclusive: 22.4 µM [inhibitor, single point]"
18,Cc1cc(C(=O)Nc2ccc3c(c2)CCC3)ccc1[N+](=O)[O-],"inconclusive: 3.16 µM [activator, partial curve, poor fit]"
19,O=C(CN1CCSC1=NCc1ccccc1)c1ccccc1,"inconclusive: 35.5 µM [inhibitor, single point]"
20,CCCn1nnc(NC(=O)c2cccc(OCc3ccccc3)c2)n1,inactive
21,COc1ccc(OC)c(S(=O)(=O)n2nc(C)cc2C)c1,"inconclusive: 25.9 µM [inhibitor, single point]"
22,O=C1NC(c2ccccc2)=N/C1=C/c1ccco1,"inconclusive: 12.6 µM [inhibitor, single point]"

# Source: PubChem BioAssay AID540276 (National Center for Advancing Translational Sciences (NCATS), 2011)
